Laboratory results taken from article PMC12848046.
These are yes or no findings as the source states them, for the method shown. In cells and extracts the contact can be indirect. Some binding calls cover weakened binding; strength is not graded here. For some assays here: Tags and fused reporters may be left off the sequences shown. Blank lines part the entries; values can stand above or below the molecule they belong to.

Amino acid sequences for entries named in this document (tags omitted). A change or cut given only in a name is not applied to a line headed by its entry. Residues count along the entry.
UniProt Q93009: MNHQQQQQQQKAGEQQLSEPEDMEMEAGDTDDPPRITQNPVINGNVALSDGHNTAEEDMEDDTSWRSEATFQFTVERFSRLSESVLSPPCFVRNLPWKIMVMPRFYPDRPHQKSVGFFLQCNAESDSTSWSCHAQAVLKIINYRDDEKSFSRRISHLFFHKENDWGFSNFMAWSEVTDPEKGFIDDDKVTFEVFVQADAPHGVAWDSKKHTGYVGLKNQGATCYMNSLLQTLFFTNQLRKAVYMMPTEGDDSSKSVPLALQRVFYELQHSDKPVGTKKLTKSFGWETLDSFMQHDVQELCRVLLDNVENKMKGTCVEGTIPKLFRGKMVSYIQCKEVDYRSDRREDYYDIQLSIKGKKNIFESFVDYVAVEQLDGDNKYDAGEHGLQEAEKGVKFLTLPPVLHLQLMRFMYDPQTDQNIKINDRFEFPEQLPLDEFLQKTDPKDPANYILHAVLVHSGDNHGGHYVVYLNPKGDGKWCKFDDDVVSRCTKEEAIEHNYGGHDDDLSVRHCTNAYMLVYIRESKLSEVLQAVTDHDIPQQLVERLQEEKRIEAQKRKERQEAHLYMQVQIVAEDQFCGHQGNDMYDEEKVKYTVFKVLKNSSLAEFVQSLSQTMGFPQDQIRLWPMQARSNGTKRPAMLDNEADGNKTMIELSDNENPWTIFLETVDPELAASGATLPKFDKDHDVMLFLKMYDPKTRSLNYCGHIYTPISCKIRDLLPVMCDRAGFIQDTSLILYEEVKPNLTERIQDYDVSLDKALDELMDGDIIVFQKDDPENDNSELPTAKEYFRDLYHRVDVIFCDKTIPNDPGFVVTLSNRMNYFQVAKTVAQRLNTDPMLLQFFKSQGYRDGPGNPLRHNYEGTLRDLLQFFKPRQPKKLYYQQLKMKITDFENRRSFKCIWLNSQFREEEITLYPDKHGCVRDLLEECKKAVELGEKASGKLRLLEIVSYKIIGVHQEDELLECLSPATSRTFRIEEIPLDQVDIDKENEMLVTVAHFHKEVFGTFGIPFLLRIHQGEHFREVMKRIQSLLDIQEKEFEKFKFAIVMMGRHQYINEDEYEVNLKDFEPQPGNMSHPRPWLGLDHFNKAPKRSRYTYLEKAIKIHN
UniProt O43791: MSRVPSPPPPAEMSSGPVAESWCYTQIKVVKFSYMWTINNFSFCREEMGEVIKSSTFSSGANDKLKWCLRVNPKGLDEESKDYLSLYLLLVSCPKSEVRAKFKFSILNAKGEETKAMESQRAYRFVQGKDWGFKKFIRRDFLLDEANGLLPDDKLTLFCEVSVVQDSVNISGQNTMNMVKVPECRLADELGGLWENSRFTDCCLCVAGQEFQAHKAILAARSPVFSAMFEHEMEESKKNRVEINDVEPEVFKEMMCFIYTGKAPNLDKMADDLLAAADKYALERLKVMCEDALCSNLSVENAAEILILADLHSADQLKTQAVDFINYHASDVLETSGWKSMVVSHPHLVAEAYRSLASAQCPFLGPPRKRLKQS
Fg-SPOP-MATH: residues 31-161 of O43791

Assays:
[1] = target: T1, Myc-LZTS2 (human) (UniProt Q9BRK4); assay: co-IP; 293T cells co-transfected with two tagged constructs (Fg, Myc), lysed 48 h after transfection, IP and immunoblot by the tags; cells of Fig. 1 treated with 25 uM MG132 for 4 h before harvest
T1 sequence: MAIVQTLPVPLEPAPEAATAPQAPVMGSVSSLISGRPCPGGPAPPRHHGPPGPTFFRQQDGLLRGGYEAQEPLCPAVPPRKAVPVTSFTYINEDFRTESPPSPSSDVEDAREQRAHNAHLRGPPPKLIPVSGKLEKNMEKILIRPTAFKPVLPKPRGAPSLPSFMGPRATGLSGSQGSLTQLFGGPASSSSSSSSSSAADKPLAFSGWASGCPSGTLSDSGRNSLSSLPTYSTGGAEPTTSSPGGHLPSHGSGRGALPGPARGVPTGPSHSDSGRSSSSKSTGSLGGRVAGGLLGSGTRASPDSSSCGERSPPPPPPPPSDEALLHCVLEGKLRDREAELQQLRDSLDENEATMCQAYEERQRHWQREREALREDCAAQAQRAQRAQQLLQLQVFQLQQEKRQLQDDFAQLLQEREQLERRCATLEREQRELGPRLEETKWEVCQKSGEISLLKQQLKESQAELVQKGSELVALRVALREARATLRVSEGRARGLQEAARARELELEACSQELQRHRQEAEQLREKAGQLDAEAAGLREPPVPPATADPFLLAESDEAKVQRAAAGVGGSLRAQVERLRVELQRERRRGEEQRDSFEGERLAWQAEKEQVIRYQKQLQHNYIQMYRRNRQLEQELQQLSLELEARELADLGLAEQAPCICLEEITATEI

[2] = target: Fg-HAUSP (human) (UniProt Q93009); assay: co-IP; competition: 293T cells expressing Myc-LZTS2 and one partner (SPOP or HAUSP, whole or N-terminal fragment) without or with the other partner co-expressed
[3] = target: HA-SPOP (human) (UniProt O43791); assay: as above
[4] = target: Fg-HAUSP (human) (UniProt Q93009); assay: co-IP; 293T cells co-transfected with two tagged constructs (Fg, Myc), lysed 48 h after transfection, IP and immunoblot by the tags; cells of Fig. 1 treated with 25 uM MG132 for 4 h before harvest
[5] = target: Fg-HAUSP M102L (human) (UniProt Q93009); assay: as above
[6] = target: Fg-HAUSP R93Q (human) (UniProt Q93009); assay: as above
[7] = target: Fg-SPOP (human) (UniProt O43791); assay: as above
[8] = target: Fg-SPOP A61T (human) (UniProt O43791); assay: as above
[9] = target: Fg-SPOP E47K (human) (UniProt O43791); assay: as above
[10] = target: Fg-SPOP F32L (human) (UniProt O43791); assay: as above
[11] = target: Fg-SPOP M117I (human) (UniProt O43791); assay: as above
[12] = target: Fg-SPOP R121Q (human) (UniProt O43791); assay: as above
[13] = target: Fg-SPOP S54T (human) (UniProt O43791); assay: as above
[14] = target: Fg-SPOP-MATH (human) (UniProt O43791); assay: as above
[15] = target: SPOP-M35L (human) (UniProt O43791); assay: as above
[16] = target: endogenous HAUSP (human (endogenous in HCT-116 and HT-29)) (UniProt Q93009); assay: co-IP; endogenous proteins in HT-29 cell lysate, IP and immunoblot with antibodies to the proteins
[17] = target: endogenous SPOP (human (endogenous in HCT-116 and HT-29)) (UniProt O43791); assay: as above
[18] = target: endogenous HAUSP (human (endogenous in HCT-116 and HT-29)) (UniProt Q93009); assay: co-IP; endogenous proteins in HCT-116 cell lysate, IP and immunoblot with antibodies to the proteins
[19] = target: endogenous SPOP (human (endogenous in HCT-116 and HT-29)) (UniProt O43791); assay: as above

Molecule: Fg-SPOP (from UniProt O43791 1-374)
- binding [1]: binds

Molecule: Fg-HAUSP (from UniProt Q93009 1-1102) (enzyme)
- binding [1]: binds

Other lines, results leading:

- binding [2]: binds
- binding [3]: binds
- binding [4]: binds
- binding [5]: binds
- binding [6]: binds
- binding [7]: binds
- binding [8]: binds
- binding [9]: binds
- binding [10]: binds
- binding [11]: binds
- binding [12]: binds
- binding [13]: binds
- binding [14]: binds
- binding [15]: binds
B1: Myc-LZTS2 (protein, UniProt Q9BRK4 1-669)
chain: T1 sequence

- binding [16]: binds
- binding [17]: binds
- binding [18]: binds
- binding [19]: binds
B2: endogenous LZTS2 (protein, UniProt Q9BRK4 1-669)
chain: T1 sequence
